Experimental data taken from the supplement of paper PMC7661543.
Differences between knockout arms are mostly noise.

What was measured:
Experiment in all cases: relative cell number vs DMSO control (72 h) (% of DMSO); higher = less growth inhibition (more cells)
MDA-MB-231 = tested on: MDA-MB-231
Experimental: (§1)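 QMAP-Seq: a pool of 5 breast cancer cell lines (ZR-75-1, SKBR3, HCC-38, MDA-MB-231, BT-20), each carrying 12 doxycycline-inducible Cas9 sgRNA perturbations (11 knockouts plus non-targeting sgNT), was treated with compounds for 72 h at four 10-fold doses (10 nM-10 uM or 1 nM-1 uM range). Barcodes were amplified and sequenced, and cell number was interpolated from 293T spike-in standard curves. The result is expressed as % of the median of DMSO wells. Two biological replicates.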

ZR-75-1 = tested on: ZR-75-1
Experimental: as §1

SKBR3 = tested on: SKBR3
Experimental: as §1

O=C(O)C(Cc1c[nH]c2ccccc12)N1C(=O)c2ccccc2C1=O (stereo not drawn) [RG108]
relative cell number
Conditions	MDA-MB-231	SKBR3	ZR-75-1
sgRNA knockout: sgATF3, 10 nM	107	103	89.6
sgRNA knockout: sgATF3, 100 nM	74.2	85.2	87.3
sgRNA knockout: sgATF3, 1000 nM	92.9	109	74.3
sgRNA knockout: sgATF3, 10000 nM	120	89.8	106
sgRNA knockout: sgATF4, 10 nM	110	86.5	143.7
sgRNA knockout: sgATF4, 100 nM	72	85.23	106
sgRNA knockout: sgATF4, 1000 nM	103	97.4	110
sgRNA knockout: sgATF4, 10000 nM	72	87.77	74.9
sgRNA knockout: sgATF6, 10 nM	82.7	80.4	58.2
sgRNA knockout: sgATF6, 100 nM	102	87.9	76.4
sgRNA knockout: sgATF6, 1000 nM	102	84.9	128
sgRNA knockout: sgATF6, 10000 nM	92.8	86.5	58.6
sgRNA knockout: sgATG7, 10 nM	79.7	78.2	68
sgRNA knockout: sgATG7, 100 nM	98.7	76.4	96.9
sgRNA knockout: sgATG7, 1000 nM	74.1	98.5	89.6
sgRNA knockout: sgATG7, 10000 nM	88.6	99.95	84.9
sgRNA knockout: sgERN1, 10 nM	80.4	95.2	75.9
sgRNA knockout: sgERN1, 100 nM	88	70.5	75
sgRNA knockout: sgERN1, 1000 nM	99.9	107	90
sgRNA knockout: sgERN1, 10000 nM	109	91.8	81.6
sgRNA knockout: sgHSF1, 10 nM	72.8	76	–
sgRNA knockout: sgHSF1, 100 nM	91.2	92.3	–
sgRNA knockout: sgHSF1, 1000 nM	83.9	90.6	–
sgRNA knockout: sgHSF1, 10000 nM	98.7	96.2	–
sgRNA knockout: sgHSF2, 10 nM	85.1	92.8	75.7
sgRNA knockout: sgHSF2, 100 nM	77.8	86.06	96.1
sgRNA knockout: sgHSF2, 1000 nM	94.7	75.4	86.1
sgRNA knockout: sgHSF2, 10000 nM	111	79.881	101
sgRNA knockout: sgKEAP1, 10 nM	92.2	73.3	–
sgRNA knockout: sgKEAP1, 100 nM	101	77.7	–
sgRNA knockout: sgKEAP1, 1000 nM	99.1	86	–
sgRNA knockout: sgKEAP1, 10000 nM	97.7	86.6	–
sgRNA knockout: sgNFE2L2, 10 nM	106	88.2	111
sgRNA knockout: sgNFE2L2, 100 nM	86.2	86.8	75.7
sgRNA knockout: sgNFE2L2, 1000 nM	90.9	99.3	77.9
sgRNA knockout: sgNFE2L2, 10000 nM	95.2	105.8	79
sgRNA knockout: sgSLC35F2, 10 nM	88.8	88.4	69.3
sgRNA knockout: sgSLC35F2, 100 nM	90	100	84.6
sgRNA knockout: sgSLC35F2, 1000 nM	96.49	80.6	111
sgRNA knockout: sgSLC35F2, 10000 nM	103	81.5	28
sgRNA knockout: sgXBP1, 10 nM	80.3	89.3	103
sgRNA knockout: sgXBP1, 100 nM	90.8	90	80.51
sgRNA knockout: sgXBP1, 1000 nM	105	106	77.6
sgRNA knockout: sgXBP1, 10000 nM	103	110	95.5

COc1cc2ncnc(Nc3ccc(F)c(Cl)c3)c2cc1OCCCN1CCOCC1 [Gefitinib]
relative cell number
Conditions	MDA-MB-231	SKBR3	ZR-75-1
sgRNA knockout: sgATF3, 10 nM	109	107	85.8
sgRNA knockout: sgATF3, 100 nM	111	93	88.4
sgRNA knockout: sgATF3, 1000 nM	113	70.2	74.5
sgRNA knockout: sgATF3, 10000 nM	89.6	37.4	56.6
sgRNA knockout: sgATF4, 10 nM	123	78	78.9
sgRNA knockout: sgATF4, 100 nM	101	90.5	105
sgRNA knockout: sgATF4, 1000 nM	85.4	60	76.7
sgRNA knockout: sgATF4, 10000 nM	71.7	29.9	66.2
sgRNA knockout: sgATF6, 10 nM	112	89.6	69.3
sgRNA knockout: sgATF6, 100 nM	110	80	108
sgRNA knockout: sgATF6, 1000 nM	82.4	76.3	76.6
sgRNA knockout: sgATF6, 10000 nM	75.7	32.2	52.9
sgRNA knockout: sgATG7, 10 nM	92	74.5	77
sgRNA knockout: sgATG7, 100 nM	91.4	110	66.5
sgRNA knockout: sgATG7, 1000 nM	107	72.8	56.8
sgRNA knockout: sgATG7, 10000 nM	82.7	33.4	56.3
sgRNA knockout: sgERN1, 10 nM	95.1	73.5	85
sgRNA knockout: sgERN1, 100 nM	96.4	94.4	93.3
sgRNA knockout: sgERN1, 1000 nM	96	63.2	72.6
sgRNA knockout: sgERN1, 10000 nM	69.003	30.7	63.9
sgRNA knockout: sgHSF1, 10 nM	79.4	78.9	–
sgRNA knockout: sgHSF1, 100 nM	94.5	83.3	–
sgRNA knockout: sgHSF1, 1000 nM	97.9	52.3	–
sgRNA knockout: sgHSF1, 10000 nM	81.4	36	–
sgRNA knockout: sgHSF2, 10 nM	98.9	79.3	71.6
sgRNA knockout: sgHSF2, 100 nM	96.6	101	88.4
sgRNA knockout: sgHSF2, 1000 nM	101	79.6	83.5
sgRNA knockout: sgHSF2, 10000 nM	68.5	29.5	64.8
sgRNA knockout: sgKEAP1, 10 nM	86.9	78.4	–
sgRNA knockout: sgKEAP1, 100 nM	99.7	103	–
sgRNA knockout: sgKEAP1, 1000 nM	91.9	69.9	–
sgRNA knockout: sgKEAP1, 10000 nM	94.3	31.7	–
sgRNA knockout: sgNFE2L2, 10 nM	95.3	86.7	82.31
sgRNA knockout: sgNFE2L2, 100 nM	116	83.2	94
sgRNA knockout: sgNFE2L2, 1000 nM	84.3	67.4	76.6
sgRNA knockout: sgNFE2L2, 10000 nM	71.7	35.91	53.6
sgRNA knockout: sgSLC35F2, 10 nM	103	69	61.3
sgRNA knockout: sgSLC35F2, 100 nM	104	94	71.6
sgRNA knockout: sgSLC35F2, 1000 nM	102	63.1	57.1
sgRNA knockout: sgSLC35F2, 10000 nM	66.6	29.1	70.7
sgRNA knockout: sgXBP1, 10 nM	100	118	80.2
sgRNA knockout: sgXBP1, 100 nM	112	91.4	88.1
sgRNA knockout: sgXBP1, 1000 nM	113	67.585	61.8
sgRNA knockout: sgXBP1, 10000 nM	81.6	25.3	54.5
